Data on one substance can be found in article PMC10229228, “Structural insights into a regulatory mechanism of FIR RRM1–FUSE interaction”.

Amino acid sequences for entries named in this document (tags omitted). A change or cut given only in a name is not applied to a line headed by its entry. Residues count along the entry.
UniProt Q9UHX1, residues 118-310: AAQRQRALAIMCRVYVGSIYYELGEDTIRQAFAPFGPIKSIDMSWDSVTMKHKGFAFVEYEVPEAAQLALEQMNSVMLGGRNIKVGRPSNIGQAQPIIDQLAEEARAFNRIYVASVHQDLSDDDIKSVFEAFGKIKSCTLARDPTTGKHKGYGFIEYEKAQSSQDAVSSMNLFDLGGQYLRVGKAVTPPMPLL

This experiment addresses FUBP-interacting repressor (FIR) RRM1-2 (residues 101-293) (UniProt Q9UHX1). The experiment can be described thus: crystal structure; FIR RRM1-2 mixed with 15-nt FUSE ssDNA at 1:2 (protein:ssDNA), complex purified by size exclusion, crystallised at 20°C in 25% PEG 3350, 0.2 M sodium acetate, 0.1 M Bis-Tris pH 5.5; space group P212121, two protein molecules in the asymmetric unit; 2.05 Å; both purified. On the technique in general: SEC sorts molecules by how far they enter the pores of the column.

These are yes or no findings as the source states them, for the method shown.

Consider “FUBP-interacting repressor (FIR) RRM1-2 (residues 101-293) (from UniProt Q9UHX1-2 101-293) (domain or fragment)”, for which the binding entry is on record as “no binding”.
